Test results taken from the supplement of paper PMC12067093, “Discovery and optimisation of a covalent ligand for TRIM25 and its application to targeted protein ubiquitination” (Chemical Science, 2025).
The list shows a part of the results.

Protein sequences, listed by entry. Tags and fused reporters are not part of them. Lines headed by an entry give the natural chain unless they say otherwise; changes in a name come on top.
UniProt Q8N9Q2: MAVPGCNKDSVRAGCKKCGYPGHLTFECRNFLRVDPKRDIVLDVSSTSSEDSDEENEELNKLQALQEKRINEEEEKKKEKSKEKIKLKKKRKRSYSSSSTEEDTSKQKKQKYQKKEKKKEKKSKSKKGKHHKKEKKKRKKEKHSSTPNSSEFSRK
UniProt Q96R06: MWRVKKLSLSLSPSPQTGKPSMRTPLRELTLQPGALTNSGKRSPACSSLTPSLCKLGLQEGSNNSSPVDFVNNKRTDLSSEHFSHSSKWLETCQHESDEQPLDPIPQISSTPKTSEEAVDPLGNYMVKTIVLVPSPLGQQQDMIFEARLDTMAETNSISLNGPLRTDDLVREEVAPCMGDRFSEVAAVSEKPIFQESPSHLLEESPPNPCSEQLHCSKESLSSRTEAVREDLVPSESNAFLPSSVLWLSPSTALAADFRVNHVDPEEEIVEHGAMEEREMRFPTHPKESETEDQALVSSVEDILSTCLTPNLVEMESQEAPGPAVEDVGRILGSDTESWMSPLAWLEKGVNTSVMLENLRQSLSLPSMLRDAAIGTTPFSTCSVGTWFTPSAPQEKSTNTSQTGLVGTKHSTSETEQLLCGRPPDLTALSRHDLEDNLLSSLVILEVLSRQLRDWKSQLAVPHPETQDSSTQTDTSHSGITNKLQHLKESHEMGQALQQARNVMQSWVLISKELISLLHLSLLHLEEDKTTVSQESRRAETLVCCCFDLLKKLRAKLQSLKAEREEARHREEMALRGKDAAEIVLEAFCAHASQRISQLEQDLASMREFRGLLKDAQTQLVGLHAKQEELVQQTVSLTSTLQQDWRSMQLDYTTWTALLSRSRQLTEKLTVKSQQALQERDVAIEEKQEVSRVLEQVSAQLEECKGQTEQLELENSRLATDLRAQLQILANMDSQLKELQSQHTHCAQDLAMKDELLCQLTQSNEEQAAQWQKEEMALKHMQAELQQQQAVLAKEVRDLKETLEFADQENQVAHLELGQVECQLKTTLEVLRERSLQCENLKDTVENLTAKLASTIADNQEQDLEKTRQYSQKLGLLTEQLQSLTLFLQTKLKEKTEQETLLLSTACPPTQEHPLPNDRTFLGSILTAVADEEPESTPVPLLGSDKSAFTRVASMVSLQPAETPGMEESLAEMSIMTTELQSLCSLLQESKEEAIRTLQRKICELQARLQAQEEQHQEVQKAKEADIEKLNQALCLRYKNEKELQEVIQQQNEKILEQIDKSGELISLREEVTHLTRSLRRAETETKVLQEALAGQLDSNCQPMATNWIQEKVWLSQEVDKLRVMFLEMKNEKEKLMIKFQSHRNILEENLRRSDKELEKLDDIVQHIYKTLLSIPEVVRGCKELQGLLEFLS
UniProt P00441, whole entry, looked up: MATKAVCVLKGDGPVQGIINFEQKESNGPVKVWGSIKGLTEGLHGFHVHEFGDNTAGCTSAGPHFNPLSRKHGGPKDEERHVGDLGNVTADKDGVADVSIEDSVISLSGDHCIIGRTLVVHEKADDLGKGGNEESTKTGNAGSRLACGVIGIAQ
UniProt Q02447: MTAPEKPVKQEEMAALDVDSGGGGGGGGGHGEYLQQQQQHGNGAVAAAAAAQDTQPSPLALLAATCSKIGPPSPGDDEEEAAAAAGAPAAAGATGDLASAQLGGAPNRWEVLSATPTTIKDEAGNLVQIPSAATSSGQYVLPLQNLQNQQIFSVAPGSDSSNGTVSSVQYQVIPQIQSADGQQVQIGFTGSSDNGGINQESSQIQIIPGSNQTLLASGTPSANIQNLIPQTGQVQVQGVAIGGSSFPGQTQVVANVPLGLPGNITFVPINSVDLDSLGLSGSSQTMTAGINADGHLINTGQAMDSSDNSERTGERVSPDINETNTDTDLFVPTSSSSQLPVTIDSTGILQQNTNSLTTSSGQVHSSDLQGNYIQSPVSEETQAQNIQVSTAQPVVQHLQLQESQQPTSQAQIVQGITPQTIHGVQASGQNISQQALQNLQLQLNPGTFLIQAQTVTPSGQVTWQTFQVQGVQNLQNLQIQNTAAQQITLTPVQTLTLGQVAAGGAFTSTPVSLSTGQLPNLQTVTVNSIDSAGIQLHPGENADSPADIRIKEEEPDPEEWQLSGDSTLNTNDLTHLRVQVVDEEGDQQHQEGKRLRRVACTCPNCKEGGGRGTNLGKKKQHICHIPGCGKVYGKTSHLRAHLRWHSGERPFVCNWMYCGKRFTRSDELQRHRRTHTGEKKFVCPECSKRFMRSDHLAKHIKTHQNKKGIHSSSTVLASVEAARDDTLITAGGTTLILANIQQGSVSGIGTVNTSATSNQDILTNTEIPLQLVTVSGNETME
UniProt Q8NB90: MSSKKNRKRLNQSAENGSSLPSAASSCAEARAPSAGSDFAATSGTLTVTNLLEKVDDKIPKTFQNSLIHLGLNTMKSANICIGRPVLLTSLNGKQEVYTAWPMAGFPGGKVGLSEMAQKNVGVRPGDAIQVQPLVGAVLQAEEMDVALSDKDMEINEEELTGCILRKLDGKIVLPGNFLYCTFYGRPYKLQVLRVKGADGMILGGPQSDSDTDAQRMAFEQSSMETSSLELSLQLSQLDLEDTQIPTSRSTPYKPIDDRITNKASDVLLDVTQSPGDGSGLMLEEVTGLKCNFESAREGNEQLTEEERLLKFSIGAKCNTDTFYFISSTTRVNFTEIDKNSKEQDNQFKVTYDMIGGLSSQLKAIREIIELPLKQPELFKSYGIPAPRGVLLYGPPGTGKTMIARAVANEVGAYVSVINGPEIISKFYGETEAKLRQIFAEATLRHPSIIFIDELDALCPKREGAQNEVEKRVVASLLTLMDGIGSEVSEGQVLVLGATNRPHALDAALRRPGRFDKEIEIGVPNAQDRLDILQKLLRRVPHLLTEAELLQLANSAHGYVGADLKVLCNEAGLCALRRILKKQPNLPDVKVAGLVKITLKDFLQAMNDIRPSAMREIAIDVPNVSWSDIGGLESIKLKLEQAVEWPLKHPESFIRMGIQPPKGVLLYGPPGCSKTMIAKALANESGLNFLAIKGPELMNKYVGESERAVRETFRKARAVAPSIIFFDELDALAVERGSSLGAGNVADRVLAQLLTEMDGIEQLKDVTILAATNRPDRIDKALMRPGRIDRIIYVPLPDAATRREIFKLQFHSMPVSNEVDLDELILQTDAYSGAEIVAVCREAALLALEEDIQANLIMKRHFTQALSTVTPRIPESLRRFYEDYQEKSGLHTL
UniProt Q9NUQ6: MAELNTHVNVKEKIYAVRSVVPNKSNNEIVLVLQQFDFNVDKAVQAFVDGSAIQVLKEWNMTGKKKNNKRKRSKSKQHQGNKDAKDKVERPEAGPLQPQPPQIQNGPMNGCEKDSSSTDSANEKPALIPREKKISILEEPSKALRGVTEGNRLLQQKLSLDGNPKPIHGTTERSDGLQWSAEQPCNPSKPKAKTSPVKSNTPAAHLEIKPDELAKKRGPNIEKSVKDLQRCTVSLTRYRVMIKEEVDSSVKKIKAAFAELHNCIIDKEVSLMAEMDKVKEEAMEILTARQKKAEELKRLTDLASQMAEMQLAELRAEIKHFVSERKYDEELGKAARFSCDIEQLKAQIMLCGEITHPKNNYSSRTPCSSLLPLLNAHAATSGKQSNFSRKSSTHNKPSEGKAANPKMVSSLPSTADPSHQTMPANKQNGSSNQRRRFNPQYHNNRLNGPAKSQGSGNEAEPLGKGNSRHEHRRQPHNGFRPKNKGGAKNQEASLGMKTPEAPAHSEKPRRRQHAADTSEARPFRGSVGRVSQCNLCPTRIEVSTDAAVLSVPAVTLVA
UniProt P49458: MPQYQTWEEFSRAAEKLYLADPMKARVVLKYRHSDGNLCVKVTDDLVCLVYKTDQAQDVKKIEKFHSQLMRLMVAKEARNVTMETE
UniProt Q07617: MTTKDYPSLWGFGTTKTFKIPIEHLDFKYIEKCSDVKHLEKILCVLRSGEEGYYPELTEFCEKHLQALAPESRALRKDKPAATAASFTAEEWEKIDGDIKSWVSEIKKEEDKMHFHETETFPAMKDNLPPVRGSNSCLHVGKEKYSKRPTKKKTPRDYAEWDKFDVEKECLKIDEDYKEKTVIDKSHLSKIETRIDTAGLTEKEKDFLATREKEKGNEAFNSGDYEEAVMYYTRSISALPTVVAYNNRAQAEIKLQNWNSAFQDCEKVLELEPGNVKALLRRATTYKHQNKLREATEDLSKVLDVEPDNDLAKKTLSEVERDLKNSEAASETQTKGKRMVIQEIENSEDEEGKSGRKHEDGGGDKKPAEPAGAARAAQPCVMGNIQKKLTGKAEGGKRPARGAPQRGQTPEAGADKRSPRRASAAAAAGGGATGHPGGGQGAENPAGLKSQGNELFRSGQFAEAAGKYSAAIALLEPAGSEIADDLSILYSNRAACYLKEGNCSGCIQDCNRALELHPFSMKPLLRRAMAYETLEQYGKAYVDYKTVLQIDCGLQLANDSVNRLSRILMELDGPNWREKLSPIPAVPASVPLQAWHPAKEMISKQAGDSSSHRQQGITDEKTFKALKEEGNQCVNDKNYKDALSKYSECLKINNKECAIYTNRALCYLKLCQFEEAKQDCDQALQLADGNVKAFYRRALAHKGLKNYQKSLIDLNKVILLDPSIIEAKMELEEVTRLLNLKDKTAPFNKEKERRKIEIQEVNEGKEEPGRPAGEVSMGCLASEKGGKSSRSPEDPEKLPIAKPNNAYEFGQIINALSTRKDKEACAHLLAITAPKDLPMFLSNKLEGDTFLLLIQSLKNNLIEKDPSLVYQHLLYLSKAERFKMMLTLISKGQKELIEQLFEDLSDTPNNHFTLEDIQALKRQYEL
UniProt O15269: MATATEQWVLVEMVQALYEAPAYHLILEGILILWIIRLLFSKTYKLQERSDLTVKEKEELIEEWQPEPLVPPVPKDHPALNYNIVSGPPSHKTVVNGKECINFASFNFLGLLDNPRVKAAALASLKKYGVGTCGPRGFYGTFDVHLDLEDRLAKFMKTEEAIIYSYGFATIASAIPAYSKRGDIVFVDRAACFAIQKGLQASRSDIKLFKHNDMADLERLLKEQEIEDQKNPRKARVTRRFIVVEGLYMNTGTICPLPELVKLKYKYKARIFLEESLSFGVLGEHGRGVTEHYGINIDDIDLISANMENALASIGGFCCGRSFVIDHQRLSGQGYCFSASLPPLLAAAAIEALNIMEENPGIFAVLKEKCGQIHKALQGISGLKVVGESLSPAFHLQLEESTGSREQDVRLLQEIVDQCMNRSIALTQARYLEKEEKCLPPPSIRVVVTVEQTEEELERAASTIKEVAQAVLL
UniProt P09132: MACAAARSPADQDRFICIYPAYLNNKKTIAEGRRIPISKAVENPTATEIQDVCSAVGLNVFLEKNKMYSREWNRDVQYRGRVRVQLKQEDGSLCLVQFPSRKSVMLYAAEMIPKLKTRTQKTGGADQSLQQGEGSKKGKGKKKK
UniProt P57768: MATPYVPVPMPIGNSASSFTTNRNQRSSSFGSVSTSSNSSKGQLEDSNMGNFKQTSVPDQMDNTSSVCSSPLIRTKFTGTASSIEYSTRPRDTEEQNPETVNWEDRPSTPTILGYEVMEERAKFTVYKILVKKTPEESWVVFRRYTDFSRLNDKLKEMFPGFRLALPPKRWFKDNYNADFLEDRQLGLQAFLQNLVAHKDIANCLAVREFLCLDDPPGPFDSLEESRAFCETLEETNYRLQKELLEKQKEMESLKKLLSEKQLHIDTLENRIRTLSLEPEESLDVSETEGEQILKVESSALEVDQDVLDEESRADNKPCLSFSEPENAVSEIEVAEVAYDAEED
UniProt P30626: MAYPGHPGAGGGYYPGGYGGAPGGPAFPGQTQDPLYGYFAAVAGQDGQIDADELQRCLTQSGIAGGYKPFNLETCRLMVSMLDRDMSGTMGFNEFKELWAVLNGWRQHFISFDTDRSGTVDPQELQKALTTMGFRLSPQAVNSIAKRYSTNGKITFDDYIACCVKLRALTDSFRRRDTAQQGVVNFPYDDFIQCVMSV
UniProt Q5T280: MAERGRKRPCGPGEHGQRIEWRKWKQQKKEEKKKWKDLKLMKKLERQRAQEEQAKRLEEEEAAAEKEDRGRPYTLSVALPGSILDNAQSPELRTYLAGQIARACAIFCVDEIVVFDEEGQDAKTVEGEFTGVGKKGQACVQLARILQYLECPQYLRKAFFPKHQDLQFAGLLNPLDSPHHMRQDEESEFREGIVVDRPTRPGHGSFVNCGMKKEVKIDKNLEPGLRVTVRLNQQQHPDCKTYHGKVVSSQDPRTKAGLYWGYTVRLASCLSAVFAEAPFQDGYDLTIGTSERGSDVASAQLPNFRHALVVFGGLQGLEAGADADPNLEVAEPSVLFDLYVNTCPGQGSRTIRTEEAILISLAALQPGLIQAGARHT
UniProt P09234, whole entry, looked up: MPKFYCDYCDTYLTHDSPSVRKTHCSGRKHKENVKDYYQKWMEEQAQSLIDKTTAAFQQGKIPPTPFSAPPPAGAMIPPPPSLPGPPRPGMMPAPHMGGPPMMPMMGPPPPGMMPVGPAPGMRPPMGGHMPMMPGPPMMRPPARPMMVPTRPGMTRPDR

Compound: CC1Cc2ccccc2N1C(=O)C1CCCN(C1)C(=O)CCl (mixture of isomers) [TRIM25 ligand 11 (diastereomer mixture)]
Test: probe-labelled cysteine peptide fold change vs DMSO (competition) (log2 fold change); higher = less target engagement (more negative = stronger competition)
Settings: THP-1, incubation time: 4 h
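Further: competitive chemoproteomic profiling in live THP-1 cells with an iodoacetamide desthiobiotin (IA-DTB) probe, comparing probe-labelled peptide intensities in compound-treated cells against DMSO-treated controls.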

Row | Target | probe-labelled cysteine peptide fold change (10 µM) | probe-labelled cysteine peptide fold change (50 µM)
1 | SREK1IP1_Q8N9Q2_18_CGYPGHLTFECR (UniProt Q8N9Q2) | 0.108 | 0.0817
2 | SPAG5_Q96R06_589_DAAEIVLEAFCAHASQR (UniProt Q96R06) | 0.166 | 0.0881
3 | SOD1_P00441_147_LACGVIGIAQ (UniProt P00441) | -0.0438 | 0.128
4 | SP3_Q02447_686_KFVCPECSK (UniProt Q02447) | 0.0384 | 0.0565
5 | SPATA5_Q8NB90_459_HPSIIFIDELDALCPK (UniProt Q8NB90) | -0.0102 | -0.321
6 | SP3_Q02447_623+628_QHICHIPGCGK (UniProt Q02447) | -0.121 | 0.0275
7 | SPATS2L_Q9NUQ6_111_DKVERPEAGPLQPQPPQIQNGPMNGCEK (UniProt Q9NUQ6) | -0.177 | -0.279
8 | SRP9_P49458_48_VTDDLVCLVYKTDQAQDVK (UniProt P49458) | -0.433 | 0.0457
9 | SPAG1_Q07617_825_EACAHLLAITAPK (UniProt Q07617) | -0.0823 | -0.0988
10 | SORD_Q00796_130_YNLSPSIFFCATPPDDGNLCR (UniProt Q00796) | 0.484 | 0.338
11 | SNX14_Q9Y5W7_732_GQHLEPFIMNFINSCESPKPK (UniProt Q9Y5W7) | -0.0516 | -0.121
12 | SRGAP2_O75044_486_TDCSLAR (UniProt O75044) | -0.0891 | -0.197
13 | SPTLC1_O15269_419_LLQEIVDQCMNR (UniProt O15269) | -0.0677 | -0.0878
14 | SRBD1_Q8N5C6_294_MSECLLK (UniProt Q8N5C6) | -0.163 | -0.438
15 | SRP19_P09132_94_QEDGSLCLVQFPSR (UniProt P09132) | 0.342 | 0.271
16 | SPTLC1_O15269_133_KYGVGTCGPR (UniProt O15269) | -0.199 | -0.03
17 | SRP19_P09132_53_AVENPTATEIQDVCSAVGLNVFLEK (UniProt P09132) | -0.249 | -0.0881
18 | SPATA5_Q8NB90_291_CNFESAR (UniProt Q8NB90) | 0.0109 | -0.118
19 | SNRPB_P14678_43+45_HMNLILCDCDEFRK (UniProt P14678) | -0.0283 | -0.00106
20 | SNX16_P57768_230_AFCETLEETNYR (UniProt P57768) | -0.0273 | -0.197

Full records, quoted from the list. Order of values: probe-labelled cysteine peptide fold change (10 µM)	probe-labelled cysteine peptide fold change (50 µM)
SPATA5_Q8NB90_291_CNFESAR (UniProt Q8NB90) as listed: 0.0109	-0.118
SPAG5_Q96R06_589_DAAEIVLEAFCAHASQR (UniProt Q96R06) as listed: 0.166	0.0881

Next part:

Row | Target | probe-labelled cysteine peptide fold change (10 µM) | probe-labelled cysteine peptide fold change (50 µM)
21 | SRCAP_Q6ZRS2_1926_IFQLSEAHGALAPVYGTEVLDFCTLPQPVASPIGPR (UniProt Q6ZRS2) | 0.683 | 0.741
22 | SPTAN1_Q13813_956_EQAQSCR (UniProt Q13813) | -0.11 | -0.0168
23 | SRP9_P49458_39_HSDGNLCVK (UniProt P49458) | -0.139 | 0.0147
24 | SNX18_Q96RF0_30_EHEVLSLCSEQDIEGWLEGVNSR (UniProt Q96RF0) | 0.0682 | -0.146
25 | SNRPB_P14678_43_HMNLILCDCDEFRK (UniProt P14678) | -0.123 | 0.0763
26 | SPTAN1_Q13813_2120_CNSLEEIK (UniProt Q13813) | -0.0591 | 0.0255
27 | SRI_P30626_162_ITFDDYIACCVK (UniProt P30626) | -0.118 | -0.151
28 | SPOUT1_Q5T280_139_KGQACVQLAR (UniProt Q5T280) | -0.0984 | -0.0844
29 | SPATS2L_Q9NUQ6_185_SDGLQWSAEQPCNPSKPK (UniProt Q9NUQ6) | -0.0644 | -0.218
30 | SPATA5L1_Q9BVQ7_685_TMPIGPDVSLENLAAETCFFSGADLR (UniProt Q9BVQ7) | 0.256 | 0.164
31 | SPOUT1_Q5T280_151_ILQYLECPQYLR (UniProt Q5T280) | -0.299 | -0.175
32 | SRP68_Q9UHB9_586_QANLVHFPPGFQPIPCK (UniProt Q9UHB9) | -0.137 | 0.0373
33 | SPTBN1_Q01082_1900_SLLDACESR (UniProt Q01082) | 0.0137 | 0.0605
34 | SPRED2_Q7Z698_73_LVVLECYVR (UniProt Q7Z698) | -0.163 | 0.187
35 | SNTB1_Q13884_515_DGEIQLDLHSCPK (UniProt Q13884) | 0.144 | 0.6
36 | SNX9_Q9Y5X1_427_CTGPLPK (UniProt Q9Y5X1) | -0.0883 | -0.0548
37 | SRM_P19623_209_EDGVLCCQGECQWLHLDLIK (UniProt P19623) | 0.351 | 0.294
38 | SNRPC_P09234_6_FYCDYCDTYLTHDSPSVR (UniProt P09234) | -0.122 | -0.874
39 | SP3_Q02447_628_KQHICHIPGCGK (UniProt Q02447) | -0.482 | -0.259
